The test deals with cyclin-dependent kinase (CDK) 7, MAC-tagged (UniProt P50613). Nature of the test: affinity purification with mass spectrometry + proximity labelling.

Sequences of proteins named here, by UniProt entry; tags and fusion partners are left off.
UniProt P50613: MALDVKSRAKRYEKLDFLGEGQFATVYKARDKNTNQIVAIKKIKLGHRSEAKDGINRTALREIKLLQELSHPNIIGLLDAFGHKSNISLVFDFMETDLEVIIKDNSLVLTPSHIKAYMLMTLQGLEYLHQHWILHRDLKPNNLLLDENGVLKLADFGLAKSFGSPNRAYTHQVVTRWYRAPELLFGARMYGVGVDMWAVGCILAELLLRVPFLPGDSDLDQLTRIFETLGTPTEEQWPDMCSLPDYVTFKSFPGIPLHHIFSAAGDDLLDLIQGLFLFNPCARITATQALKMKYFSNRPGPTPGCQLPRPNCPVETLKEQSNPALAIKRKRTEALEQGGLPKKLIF

Results are given in words; binding and its absence hold for the method and conditions named. Binding seen in cells or lysates may run through a third protein. A yes stands for co-enrichment or nearness to the bait. Other partners may have been found.

Consider 1 molecule from publication doi:10.1101/264788.

B1: ERCC5 (protein, UniProt P28715 1-1186)
chain: MGVQGLWKLLECSGRQVSPEALEGKILAVDISIWLNQALKGVRDRHGNSIENPHLLTLFHRLCKLLFFRIRPIFVFDGDAPLLKKQTLVKRRQRKDLASSDSRKTTEKLLKTFLKRQAIKTAFRSKRDEALPSLTQVRRENDLYVLPPLQEEEKHSSEEEDEKEWQERMNQKQALQEEFFHNPQAIDIESEDFSSLPPEVKHEILTDMKEFTKRRRTLFEAMPEESDDFSQYQLKGLLKKNYLNQHIEHVQKEMNQQHSGHIRRQYEDEGGFLKEVESRRVVSEDTSHYILIKGIQAKTVAEVDSESLPSSSKMHGMSFDVKSSPCEKLKTEKEPDATPPSPRTLLAMQAALLGSSSEEELESENRRQARGRNAPAAVDEGSISPRTLSAIKRALDDDEDVKVCAGDDVQTGGPGAEEMRINSSTENSDEGLKVRDGKGIPFTATLASSSVNSAEEHVASTNEGREPTDSVPKEQMSLVHVGTEAFPISDESMIKDRKDRLPLESAVVRHSDAPGLPNGRELTPASPTCTNSVSKNETHAEVLEQQNELCPYESKFDSSLLSSDDETKCKPNSASEVIGPVSLQETSSIVSVPSEAVDNVENVVSFNAKEHENFLETIQEQQTTESAGQDLISIPKAVEPMEIDSEESESDGSFIEVQSVISDEELQAEFPETSKPPSEQGEEELVGTREGEAPAESESLLRDNSERDDVDGEPQEAEKDAEDSLHEWQDINLEELETLESNLLAQQNSLKAQKQQQERIAATVTGQMFLESQELLRLFGIPYIQAPMEAEAQCAILDLTDQTSGTITDDSDIWLFGARHVYRNFFNKNKFVEYYQYVDFHNQLGLDRNKLINLAYLLGSDYTEGIPTVGCVTAMEILNEFPGHGLEPLLKFSEWWHEAQKNPKIRPNPHDTKVKKKLRTLQLTPGFPNPAVAEAYLKPVVDDSKGSFLWGKPDLDKIREFCQRYFGWNRTKTDESLFPVLKQLDAQQTQLRIDSFFRLAQQEKEDAKRIKSQRLNRAVTCMLRKEKEAAASEIEAVSVAMEKEFELLDKAKGKTQKRGITNTLEESSSLKRKRLSDSKGKNTCGGFLGETCLSESSDGSSSEDAESSSLMNVQRRTAAKEPKTSASDSQNSVKEAPVKNGGATTSSSSDSDDDGGKEKMVLVTARSVFGKKRRKLRRARGRKRKT
In the case of B1, the binding entry is on record as “binds”.
